Values from PubChem BioAssay AID1259306 (Sanger Institute, 2017)
In all, the deposit lists 794 reagents; below is a part drawn at random. 11 of them (1.4%) were called active. 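Calls reflect knock-down alone; synergy scores play no part, so knock-downs synergising with a drug can be called no change.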 Viability is capped at 1. Further read-outs or replicates are left out here. No sequences are given here. Not stated in the record: the amount of reagent, the time to read-out.

- Test: 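Kinase-wide siRNA screen for partners of targeted drugs in colorectal cancer cells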 (primary screen)
- Cells: human SNU-C5 colorectal cancer cells
- Reagent: siRNA pool against human genes
- Treatment: DMSO vehicle alone, or one anchor drug: BYL719 at 1 µM, cetuximab at 5 µg/ml or trametinib at 10 nM, given 24 h into the assay
- Measurement: 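Viability versus non-targeting pool averaged across replicates, given as fraction and robust z-score, and synergy scores for BYL719, cetuximab or trametinib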
- Reading the numbers: robust z-score, knock-down alone and viability, knock-down alone: higher = more viable cells; synergy score with BYL719: higher = stronger synthetic lethality with BYL719
- Active means: 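Essential if knock-down without drug gives a robust z-score under -3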
- Meaning of the calls: active = essential (knock-down alone); inactive = no change alone

The first 3 entries as a preview:
gene knocked down | PubChem SID | robust z-score, knock-down alone | viability, knock-down alone | synergy score with BYL719 | Call
GNE | SID56479101 | 0.255 | 0.899 | 0.0794 | inactive
NEK8 | SID56478901 | -0.164 | 0.841 | 0.233 | inactive
PXK | SID152149443 | -0.713 | 0.765 | 0.0728 | inactive

The list itself, from the first entry:
gene knocked down | PubChem SID | robust z-score, knock-down alone | viability, knock-down alone | synergy score with BYL719 | Call
GNE | SID56479101 | 0.255 | 0.899 | 0.0794 | inactive
NEK8 | SID56478901 | -0.164 | 0.841 | 0.233 | inactive
PXK | SID152149443 | -0.713 | 0.765 | 0.0728 | inactive
ETNK2 | SID56478982 | -0.733 | 0.763 | 0.00452 | inactive
TAF1L | SID152155360 | -0.547 | 0.788 | -0.0299 | inactive
GUCY2C | SID152148747 | 0.989 | 1 | 0.0327 | inactive
PDIK1L | SID152147170 | 0.416 | 0.921 | -0.0789 | inactive
DGKA | SID152151940 | 0.587 | 0.945 | 0.13 | inactive
CDK5R2 | SID56479219 | -0.00334 | 0.863 | 0.109 | inactive
STYK1 | SID56478493 | -0.666 | 0.772 | 0.13 | inactive
PTK2 | SID56478542 | -0.33 | 0.818 | 0.0537 | inactive
PIM2 | SID56479034 | 0.433 | 0.923 | -0.0228 | inactive
CDC7 | SID56478594 | 0.989 | 1 | 0.0945 | inactive
IGF2R | SID152150296 | 0.821 | 0.977 | 0.096 | inactive
CERK | SID152152071 | -0.564 | 0.786 | -0.13 | inactive
KMT2B | SID134314396 | 0.634 | 0.951 | 0.128 | inactive
MAP3K2 | SID135620706 | -0.217 | 0.834 | -0.164 | inactive
PKMYT1 | SID56478956 | 0.989 | 1 | 0.173 | inactive
MLKL | SID56479010 | -0.533 | 0.79 | 0.019 | inactive
CDKL5 | SID135620888 | 0.945 | 0.994 | 0.115 | inactive
ERBB2 | SID152153302 | 0.989 | 1 | 0.1 | inactive
LRRK2 | SID152152689 | 0.536 | 0.938 | 0.164 | inactive
TESK1 | SID152149255 | -1.94 | 0.597 | 0.0735 | inactive
HIPK4 | SID135620890 | 0.989 | 1 | 0.0595 | inactive
ALPK3 | SID152152513 | -1.64 | 0.638 | -0.225 | inactive
KHK | SID135621242 | -0.545 | 0.789 | 0.117 | inactive
PHKA1 | SID152155157 | 0.468 | 0.928 | 0.114 | inactive
ULK4 | SID152148607 | -0.548 | 0.788 | 0.153 | inactive
RNASEL | SID56478962 | 0.989 | 1 | 0.0983 | inactive
CKMT1B | SID135621236 | 0.989 | 1 | 0.279 | inactive
CDK17 | SID56478886 | 0.371 | 0.915 | 0.0911 | inactive
PRKCZ | SID56478675 | -1.22 | 0.696 | -0.0767 | inactive
BRAF | SID152153735 | -0.459 | 0.8 | 0.0912 | inactive
EFNA3 | SID135623696 | -0.2 | 0.836 | 0.00873 | inactive
